The text below walks through data of US20230091510A1 (priority 2019, published 2023).

The nature of the series: general procedure: solution-phase peptide synthesis; HATU/DIPEA. The conditions noted are these: late stage modification step.

The substance “(1R,3S,4S)—N—((S)-1-(((3R,4S,5S)-3-methoxy-1-((S)-2-((1R,2R)-1-methoxy-2-methyl-3-oxo-3-(((S)-2-phenyl-1-(thiazol-2-yl)ethyl)amino)propyl)pyrrolidin-1-yl)-5-methyl-1-oxoheptan-4-yl)(methyl)amino)-3-methyl-1-oxobutan-2-yl)-2-azabicyclo” returned a step yield of 83%.
